According to PMC3614988:
Like-named read-outs stand apart in the source and are kept apart here. These are yes or no findings as the source states them, for the method shown. Binding seen in cells or lysates may run through a third protein. Some entries that bind do so weakly or less than the wild type. One block for each molecule: values may come before it.

Chains of the proteins cited; added tags and fusions are not shown.
UniProt P31000: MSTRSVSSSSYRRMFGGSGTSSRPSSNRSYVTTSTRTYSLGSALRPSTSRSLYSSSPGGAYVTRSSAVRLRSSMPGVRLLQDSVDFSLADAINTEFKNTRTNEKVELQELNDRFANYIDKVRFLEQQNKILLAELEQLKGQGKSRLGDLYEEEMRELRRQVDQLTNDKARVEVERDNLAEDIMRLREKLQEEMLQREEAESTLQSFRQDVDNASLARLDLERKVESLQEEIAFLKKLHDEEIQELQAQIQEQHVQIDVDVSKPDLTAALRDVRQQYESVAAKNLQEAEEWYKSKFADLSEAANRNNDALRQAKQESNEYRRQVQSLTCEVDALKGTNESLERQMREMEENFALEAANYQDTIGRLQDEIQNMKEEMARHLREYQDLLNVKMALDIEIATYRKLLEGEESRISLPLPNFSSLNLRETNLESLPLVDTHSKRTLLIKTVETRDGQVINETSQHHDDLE
UniProt F1M3L7: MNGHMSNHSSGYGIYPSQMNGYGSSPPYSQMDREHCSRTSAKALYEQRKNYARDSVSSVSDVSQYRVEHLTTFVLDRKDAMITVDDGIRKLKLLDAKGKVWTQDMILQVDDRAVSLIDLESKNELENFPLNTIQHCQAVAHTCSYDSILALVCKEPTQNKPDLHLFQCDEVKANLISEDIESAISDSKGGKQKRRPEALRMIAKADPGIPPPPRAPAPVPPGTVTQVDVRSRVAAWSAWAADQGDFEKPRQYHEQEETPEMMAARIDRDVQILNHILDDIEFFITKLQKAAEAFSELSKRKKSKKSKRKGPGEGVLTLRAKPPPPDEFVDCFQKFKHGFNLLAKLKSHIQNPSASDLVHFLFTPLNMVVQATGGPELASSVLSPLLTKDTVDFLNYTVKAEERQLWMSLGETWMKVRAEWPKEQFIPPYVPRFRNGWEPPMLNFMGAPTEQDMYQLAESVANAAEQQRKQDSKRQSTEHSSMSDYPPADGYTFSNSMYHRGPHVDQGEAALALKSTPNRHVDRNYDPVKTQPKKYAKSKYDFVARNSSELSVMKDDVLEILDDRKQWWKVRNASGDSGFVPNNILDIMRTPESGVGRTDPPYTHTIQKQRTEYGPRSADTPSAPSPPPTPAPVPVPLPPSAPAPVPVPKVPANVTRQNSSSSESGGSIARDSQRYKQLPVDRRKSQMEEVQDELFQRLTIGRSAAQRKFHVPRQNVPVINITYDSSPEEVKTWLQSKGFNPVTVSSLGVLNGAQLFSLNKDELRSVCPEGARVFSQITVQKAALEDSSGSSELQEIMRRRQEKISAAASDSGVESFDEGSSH

Columns and labels:
[1] = molecular target: T1, Rai14 (retinoic acid induced protein 14) (rat (endogenous in testis)) (UniProt Q5U312); assay: co-IP; anti-Rai14 IgG (2 µg) as precipitating antibody, immunoblot for the partner; rat testis lysate (for Figure 1D the lysate is not named in the legend); untreated rats
T1 sequence: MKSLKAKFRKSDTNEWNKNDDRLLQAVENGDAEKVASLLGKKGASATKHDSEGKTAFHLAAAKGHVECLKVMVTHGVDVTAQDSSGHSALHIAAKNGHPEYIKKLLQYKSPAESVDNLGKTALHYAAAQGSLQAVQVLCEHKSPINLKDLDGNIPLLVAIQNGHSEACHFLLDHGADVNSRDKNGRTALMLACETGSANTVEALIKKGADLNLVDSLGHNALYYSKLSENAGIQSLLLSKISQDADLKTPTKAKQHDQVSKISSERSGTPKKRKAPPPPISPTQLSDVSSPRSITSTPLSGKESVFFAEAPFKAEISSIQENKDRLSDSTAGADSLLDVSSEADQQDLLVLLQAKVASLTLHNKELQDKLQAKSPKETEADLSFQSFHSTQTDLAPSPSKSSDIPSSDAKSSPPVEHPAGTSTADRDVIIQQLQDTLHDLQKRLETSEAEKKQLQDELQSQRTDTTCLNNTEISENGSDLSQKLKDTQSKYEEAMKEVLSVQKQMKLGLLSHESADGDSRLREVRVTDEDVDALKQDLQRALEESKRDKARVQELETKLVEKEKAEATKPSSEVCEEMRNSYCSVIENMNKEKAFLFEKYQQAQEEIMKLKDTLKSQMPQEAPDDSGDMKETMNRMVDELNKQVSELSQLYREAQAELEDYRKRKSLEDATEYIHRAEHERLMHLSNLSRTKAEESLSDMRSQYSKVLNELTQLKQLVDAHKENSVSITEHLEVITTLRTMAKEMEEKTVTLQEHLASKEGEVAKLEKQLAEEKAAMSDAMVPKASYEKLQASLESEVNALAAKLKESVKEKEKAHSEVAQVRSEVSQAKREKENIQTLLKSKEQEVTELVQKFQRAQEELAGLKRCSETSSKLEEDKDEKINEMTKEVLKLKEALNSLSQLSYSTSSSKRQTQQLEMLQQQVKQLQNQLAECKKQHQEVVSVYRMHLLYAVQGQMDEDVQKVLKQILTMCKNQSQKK

[2] = molecular target: T1, Rai14 (retinoic acid induced protein 14) (rat (endogenous in testis)); assay: as above; remark: listed apart in the source

binding [1]: no binding
Molecule: vimentin (from UniProt P31000 1-466)

binding [1]: no binding
Molecule: Eps8 (epidermal growth factor receptor pathway substrate 8) (from UniProt F1M3L7 1-822)

binding [2]: binds
B1: palladin (protein, UniProt P0C5E3 1-603)
chain: PEEICTLVIAESFPEDAGIFTCSARNDYGSVTSTAQLVVTSANTENCSYDSMGEPNSDHFQHFPPPPPILETGSYELASQKPSEIQQVNTPNLGFNMAALQMQFNSAERETNGVHPSHGVNGLINGKAYGNKSPPTPAALLSPTKEPPPLLAKPKLGFPKKASRTARIASDEEIQGTKDAVIQDLERKLRFKEDLLNNGQPRLTYEERMARRLLGADSANVFNIQEPEETAANQEYKVSSCEQRLISEIEYRLERSPVEESGDEVQEAEVPVENAAAPFFEMKLKHYKIFEGMPVTFTCRVAGSPKPKIYWFKDGKQISPKSDHYTIQRDVDGTCSLHTTASTLDDDGNYTIMAANTQGRVSCTGRLMVQAVNQRGRSPRSPPGHPHARRPRSRSRDSGDENEPIQERFFRPHFLQAPGDLTVQEGKLCRMDCKVSGLPTPDLSWQLDGKPIRPDSAHKMLVRENGVHSLIIEPVTSRDAGIYTCIATNRAGQNSFNLELVVAAKEAHKAPVFIEKLQNTGVADGYPVRLECRVSGVPPPQIFWKKENESLTHSTDRVSMHQDNHGYICLLIQGATKEDAGWYTVSAKNEAGIVSCTARLDVY
